Source: publication PMC7935911
These are yes or no findings as the source states them, for the method shown. In cells and extracts the contact can be indirect. Some results given as binding are weak or reduced against the parent protein; the word gives no strength. One block for each molecule: values may come before it.

Chains of the proteins cited; added tags and fusions are not shown.
UniProt Q02248: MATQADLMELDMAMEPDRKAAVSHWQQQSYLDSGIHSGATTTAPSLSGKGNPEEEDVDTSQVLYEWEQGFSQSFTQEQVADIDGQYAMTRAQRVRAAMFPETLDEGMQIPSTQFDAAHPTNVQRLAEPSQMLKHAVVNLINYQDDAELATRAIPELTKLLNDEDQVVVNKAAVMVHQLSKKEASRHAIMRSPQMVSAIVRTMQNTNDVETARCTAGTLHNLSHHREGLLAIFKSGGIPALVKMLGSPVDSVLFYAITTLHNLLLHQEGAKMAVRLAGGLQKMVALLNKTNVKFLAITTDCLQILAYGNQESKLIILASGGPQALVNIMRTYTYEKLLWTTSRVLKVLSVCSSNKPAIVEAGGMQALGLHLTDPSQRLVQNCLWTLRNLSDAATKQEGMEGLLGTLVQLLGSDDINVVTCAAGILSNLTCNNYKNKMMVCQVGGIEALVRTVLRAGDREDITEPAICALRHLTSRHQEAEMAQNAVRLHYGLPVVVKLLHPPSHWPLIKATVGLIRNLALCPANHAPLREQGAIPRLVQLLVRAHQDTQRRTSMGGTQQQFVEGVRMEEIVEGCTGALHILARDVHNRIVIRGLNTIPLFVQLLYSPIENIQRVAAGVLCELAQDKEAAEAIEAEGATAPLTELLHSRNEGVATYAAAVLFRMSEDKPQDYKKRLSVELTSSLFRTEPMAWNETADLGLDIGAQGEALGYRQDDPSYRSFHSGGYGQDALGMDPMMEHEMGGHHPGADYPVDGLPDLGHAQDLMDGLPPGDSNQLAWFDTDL
UniProt P27782: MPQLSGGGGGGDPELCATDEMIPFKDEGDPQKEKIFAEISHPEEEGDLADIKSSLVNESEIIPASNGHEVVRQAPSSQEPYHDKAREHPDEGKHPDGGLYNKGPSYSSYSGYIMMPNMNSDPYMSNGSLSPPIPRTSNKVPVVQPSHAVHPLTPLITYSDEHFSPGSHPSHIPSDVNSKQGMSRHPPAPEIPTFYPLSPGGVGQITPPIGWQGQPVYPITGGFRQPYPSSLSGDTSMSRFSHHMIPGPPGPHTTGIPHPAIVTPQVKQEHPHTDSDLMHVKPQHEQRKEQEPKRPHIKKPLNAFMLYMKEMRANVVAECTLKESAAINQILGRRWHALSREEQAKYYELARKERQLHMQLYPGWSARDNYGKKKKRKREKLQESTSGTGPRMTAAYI

Molecular target: β-catenin (mouse (endogenous in MEFs)) (UniProt Q02248)
Assay: co-IP; nuclear extracts of MEFs (WT; for β-catenin/LEF1 also TG2 KO); 2 mg protein, 4 μg specific antibody, Dynabeads Protein G; lysis buffer 150 mM NaCl, 50 mM Tris-HCl pH 7.5, 2 mM EDTA, 2% NP-40; western blot

binding: binds
Molecule: LEF1 (from UniProt P27782 1-397)

binding: binds
B1: Type 2 transglutaminase (TG2) (enzyme, UniProt P21981 1-686)
chain: MAEELLLERCDLEIQANGRDHHTADLCQEKLVLRRGQRFRLTLYFEGRGYEASVDSLTFGAVTGPDPSEEAGTKARFSLSDNVEEGSWSASVLDQQDNVLSLQLCTPANAPIGLYRLSLEASTGYQGSSFVLGHFILLYNAWCPADDVYLDSEEERREYVLTQQGFIYQGSVKFIKSVPWNFGQFEDGILDTCLMLLDMNPKFLKNRSRDCSRRSSPIYVGRVVSAMVNCNDDQGVLLGRWDNNYGDGISPMAWIGSVDILRRWKEHGCQQVKYGQCWVFAAVACTVLRCLGIPTRVVTNYNSAHDQNSNLLIEYFRNEFGELESNKSEMIWNFHCWVESWMTRPDLQPGYEGWQAIDPTPQEKSEGTYCCGPVSVRAIKEGDLSTKYDAPFVFAEVNADVVDWIRQEDGSVLKSINRSLVVGQKISTKSVGRDDREDITHTYKYPEGSPEEREVFTKANHLNKLAEKEETGVAMRIRVGDSMSMGNDFDVFAHIGNDTSETRECRLLLCARTVSYNGVLGPECGTEDINLTLDPYSENSIPLRILYEKYSGCLTESNLIKVRGLLIEPAANSYLLAERDLYLENPEIKIRVLGEPKQNRKLVAEVSLKNPLSDPLYDCIFTVEGAGLTKEQKSVEVSDPVPAGDLVKARVDLFPTDIGLHKLVVNFQCDKLKSVKGYRNVIIGPA
